The list shows only some results of the screen, not a fair sample: it gathers tests that were run many times, whatever their T/C, doses with no T/C, and many T/C values between a quarter and a half above the control. Further doses and runs are listed elsewhere. T/C is the treated group as % of the vehicle group. Some entries give survivors of the animals treated and no T/C: the source holds a T/C of zero for them, seemingly a mark for toxic or unscored doses. Some survivor counts are full or nearly so, which does not show that the dose was tolerated: survival well below the control is almost never listed, so the zero probably covers shortened survival too. Counts of survivors are from the toxicity check (mostly the fifth day) where no day follows; animals may have died later. Schedules are NCI's codes, read here as Q, the interval in days (D) or hours (H), X, the number of doses. For survival time, the PubChem record calls one and a half times the control and up active, and a quarter to a half above the control has no call in these data; cut-offs in other NCI protocols can differ. Some T/C values are followed by the survivors on the day toxicity was checked, most often the fifth; without a count, all were alive then.
System: BDF1 mice, P388 leukemia ip, median survival T/C
Assay: NCI In Vivo Anticancer Drug Screen. Data for tumor model P388 Leukemia (intraperitoneal) in B6D2F1 (BDF1) mice
Conditions: T/C endpoint: median survival time, higher T/C = longer survival
How it was run: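 Transplantable tumour in mice; compound vs vehicle dosing; survival scored; ratio of treated to control reported.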

[1] = dose: 100.0 mg/kg/injection, schedule: Q04DX003 (ip), vehicle: saline with Tween-80
[2] = dose: 200.0 mg/kg/injection, schedule: Q04DX003 (ip), vehicle: saline with Tween-80
[3] = dose: 400.0 mg/kg/injection, schedule: Q04DX003 (ip), vehicle: saline with Tween-80
[4] = dose: 100.0 mg/kg/injection, schedule: Q01DX009 (ip), vehicle: Klucel (hydroxypropylcellulose) (HPC)
[5] = dose: 12.5 mg/kg/injection, schedule: Q01DX009 (ip), vehicle: saline
[6] = dose: 200.0 mg/kg/injection, schedule: Q01DX009 (ip), vehicle: saline with Tween-80
[7] = dose: 50.0 mg/kg/injection, schedule: Q04DX003 (ip), vehicle: saline
[8] = dose: 200.0 mg/kg/injection, schedule: Q04DX003 (ip), vehicle: saline

Nc1cc(Cl)c2[nH]cnc2n1
T/C (dose: 100.0 mg/kg/injection, schedule: Q01DX005 (ip), vehicle: distilled water + Tween-80): 125 % of control | T/C (dose: 200.0 mg/kg/injection, schedule: Q01DX005 (ip), vehicle: distilled water + Tween-80): 133 % of control [4 of 6 alive] | survivor count (dose: 400.0 mg/kg/injection, schedule: Q01DX005 (ip), vehicle: distilled water + Tween-80): 2 of 6

C1CSCCO1.[Cu+2].[O-][Cl+3]([O-])([O-])O
survivor count [1]: 0 of 6 | survivor count [2]: 0 of 6 | survivor count [3]: 0 of 6

C=C(NC(=O)C(=C)NC(=O)c1csc(C2=NC3c4csc(n4)C4NC(=O)c5csc(n5)C(C(C)(O)C(C)O)NC(=O)C5CSC(=N5)/C(=C/C)NC(=O)C(C(C)O)NC(=O)c5csc(n5)C3(CC2)NC(=O)C(C)NC(=O)C(=C)NC(=O)C(C)NC(=O)C(C(C)CC)NC2C=Cc3c(C(C)O)cc(nc3C2O)C(=O)OC4C)n1)C(N)=O (stereo unspecified)
T/C (dose: 50.0 mg/kg/injection, schedule: Q01DX009 (ip), vehicle: Klucel (hydroxypropylcellulose) (HPC)): 140 % of control | T/C [4]: 142 % of control | T/C (dose: 150.0 mg/kg/injection, schedule: Q01DX009 (ip), vehicle: Klucel (hydroxypropylcellulose) (HPC)): 133 % of control

O=NN(CCF)C(=O)NC1CCS(=O)(=O)CC1
T/C (dose: 0.6 mg/kg/injection, schedule: Q04DX003 (ip), vehicle: saline): 145 % of control | survivor count [1]: 0 of 6 | survivor count [2]: 0 of 6 | survivor count [3]: 0 of 6

Fc1ccc(NC(=S)S)cc1
survivor count (dose: 6.25 mg/kg/injection, schedule: Q01DX009 (ip), vehicle: saline): 6 of 6 | survivor count [5]: 6 of 6 | survivor count (dose: 25.0 mg/kg/injection, schedule: Q01DX009 (ip), vehicle: saline): 6 of 6

O=c1oc(-c2cc([N+](=O)[O-])ccc2Cl)nc2ccccc12
T/C (dose: 50.0 mg/kg/injection, schedule: Q04DX003 (ip), vehicle: saline with Tween-80): 133 % of control

c1ccc2c(c1)nnn1c3ncccc3nc21
survivor count (dose: 100.0 mg/kg/injection, schedule: Q01DX009 (ip), vehicle: saline with Tween-80): 3 of 6 | survivor count [6]: 5 of 6

O=C1NC(=O)C(c2ccccc2)(c2ccccc2)N1CCS
survivor count (dose: 12.5 mg/kg/injection, schedule: Q04DX003 (ip), vehicle: saline): 6 of 6 | survivor count (dose: 25.0 mg/kg/injection, schedule: Q04DX003 (ip), vehicle: saline): 6 of 6 | survivor count (dose: 50.0 mg/kg/injection, schedule: Q01DX009 (ip), vehicle: saline): 0 of 6 | survivor count [7]: 6 of 6 | survivor count (dose: 100.0 mg/kg/injection, schedule: Q04DX003 (ip), vehicle: saline): 6 of 6 | survivor count [8]: 6 of 6

C=C(C)C(=O)O[C@H]1[C@H]2[C@H](OC(=O)[C@H]2C)[C@H](O)[C@@H](C)[C@@H]2C=CC(=O)[C@]21C
T/C [5]: 131 % of control

COc1cc(C=Nc2ccc(-c3nc(Cc4ccccc4)sc3C)cc2)ccc1N(CCCl)CCCl
T/C (dose: 12.5 mg/kg/injection, schedule: Q01DX009 (ip), vehicle: Klucel (hydroxypropylcellulose) (HPC)): 142 % of control [5 of 6 alive] | survivor count [4]: 5 of 6

CC(=O)/C(C)=C/C=O
T/C (dose: 2.0 mg/kg/injection, schedule: Q01DX009 (ip), vehicle: water): 127 % of control

CC(=O)N1CCCC1=O
survivor count (dose: 400.0 mg/kg/injection, schedule: Q01DX009 (ip), vehicle: Klucel (hydroxypropylcellulose) (HPC)): 4 of 6

COc1ccc(C2=NC(c3ccccc3)NC(c3ccccc3)/C2=C/c2ccccc2)cc1 (stereo unspecified)
T/C (dose: 25.0 mg/kg/injection, schedule: Q01DX009 (ip), vehicle: saline with Tween-80): 128 % of control

O=C1OC(Cc2ccccc2)(c2ccccc2)c2ccccc21 (stereo unspecified)
survivor count [6]: 5 of 6

CC/C(=C\c1ccc(Cl)cc1)[N+](=O)[O-]
survivor count [7]: 6 of 6 | survivor count (dose: 100.0 mg/kg/injection, schedule: Q01DX009 (ip), vehicle: saline): 6 of 6 | survivor count [8]: 5 of 6 | survivor count (dose: 400.0 mg/kg/injection, schedule: Q04DX003 (ip), vehicle: saline): 0 of 6

— PubChem BioAssay AID328 (DTP/NCI, 2004)
